In the supplement of paper PMC10338343:
± gives the standard deviation. This is a selection; strong and weak results do not stand in their true shares. The uncertainty is large for many entries.

system: MIWI (PIWIL1) piRISC loaded with piRNA #2 (30 nt); test: pre-steady-state target cleavage rate (min^-1); MIWI and MILI are mouse PIWI proteins and EfPiwi is from a freshwater sponge; tags in brackets are library labels; higher = faster piRNA-guided slicing of the target; conditions: guide: piRNA #2 5'p-UUAGGUAACCCAGUAGAUCCAGAGGAAUUC; auxiliary factor: 500 nM mouse GTSF1
Procedure, shortened: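 A transcribed, DNA-blocked target RNA library (0.1 nM) and 1 nM active affinity-purified piRISC bearing one synthetic guide were incubated in HEPES–potassium acetate buffer at 33 °C for 0–8 or 0–960 min, either with or without 500 nM GTSF1 partner protein. Uncleaved targets were sequenced, normalised to depth and to weakly complementary targets, and pooled over three trials, with k3 capped at 0.0001 min^-1. The pre-steady-state cleavage rate was derived with a burst-and-steady-state fit.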

Row | Sequence | pre-steady-state target cleavage rate
1 | CUUAAGGAGACGAUCUACUGGGUUACUUAA | 0.000853 ± 0.01
2 | CUUAAGGAGACCUUCAACUGGCUUACCUAA | 0.000649 ± 0.011
3 | CUUAAGGAGAGGAUCUACUGGGUUUCGUAA | 0.000416 ± 0.019
4 | CUUAAGGAGAGGAUCUACUGGGUUACCUCA | 0.012 ± 0.0055
5 | CUUAAGGAGACGAUCUACAGGGUUACGUAA | 0.0022 ± 0.0033
6 | CUUAAGGAGACGAUCUACUGGAUUACCUAA | 0.00172 ± 0.0052
7 | CUUAAGGAGACGAUCUACUGGGUUACGCUAA | 0.00121 ± 0.011
8 | CUUAAGGAGACCAUCUACUGGGUUACGAAA | 0.000304 ± 0.016
9 | CUUAAGGAGACGAUCCACUGGGUUACCUAA | 0.00264 ± 0.0042
10 | CUUAUGCUCUGGAUCUACUGGGUUACCUAA | 0.124 ± 0.02
11 | CAAUUCCUCUGGAUCUACAGGGUUUCCUAA | 0.178 ± 0.026
12 | CUUAAGGAGACCAUCAACUGGCUUACCUAA | 0.000694 ± 0.01
13 | CUUAAGGAGACCUUCUAGUGGGUUACGUAA | 0.000255 ± 0.021
14 | CUUAAGGUCUGGAUGAUCUGGGUUACCUAA | 0.000419 ± 0.018
15 | CUUAAGGAGACCUAGAUGAGCGUUACGUAA | 0.00267 ± 0.0029
16 | CUUAAGGAGAGGAUCCUACUGGGUUACCUAA | 0.00204 ± 0.0043
17 | CUUAAGGAGACCUUCUACUGGGUUACGUAA | 0.00451 ± 0.0027
18 | CUUAAGGACUCGAUCUACUCGGUUACCUAA | 0.00199 ± 0.013
19 | CUUAAGGAGACGAUCUACUCGGGUUACCUAA | 0.00066 ± 0.0093
20 | CUUAAGGAGACCUACUACUGGGCUUACCUAA | 0.00043 ± 0.022
21 | CUUAAGGAGACGAUCUACUGGGUUACGUUA | 0.000883 ± 0.0065
22 | CAAUUGCUCUGGAUCUACUGGGUUACCAAA | 0.429 ± 0.071
23 | CUUAAGGAGUGGAUCAACAGGGUUACCUAA | 0.000885 ± 0.01
24 | CUUAAGGAGACCUAGUACUGGGUUACCCUAA | 0.000603 ± 0.0075

5 records picked at random from those above:
Row | Sequence | pre-steady-state target cleavage rate
5 | CUUAAGGAGACGAUCUACAGGGUUACGUAA | 0.0022 ± 0.0033
14 | CUUAAGGUCUGGAUGAUCUGGGUUACCUAA | 0.000419 ± 0.018
21 | CUUAAGGAGACGAUCUACUGGGUUACGUUA | 0.000883 ± 0.0065
9 | CUUAAGGAGACGAUCCACUGGGUUACCUAA | 0.00264 ± 0.0042
23 | CUUAAGGAGUGGAUCAACAGGGUUACCUAA | 0.000885 ± 0.01

Continuation:

Row | Sequence | pre-steady-state target cleavage rate
25 | CUUAACCUCUGGAUCUACUGUGGUUACCUAA | 0.00065 ± 0.013
26 | CUUAAGGAGACCUACUAGUCGGUUACCUAA | 0.000163 ± 0.019
27 | CUUAAGGAGACGAUCUACUGGGUUGCCUAA | 0.0015 ± 0.0062
28 | CUUAAGGAGAGGUUCAACUGGGUUACCUAA | 0.000995 ± 0.0079
29 | CUUAAGGAGAGGAGCUACUGGGUUACCUAA | 0.00478 ± 0.0053
30 | CUUAAGGACUGGAUCUUCUGCGUUACCUAA | 0.0201 ± 0.02
31 | CUUAAGGAGACCUAGAUGAGCGGUUACCUAA | 0.000791 ± 0.012
32 | CAAUUCCUCUGGAUACUACUGGGUUACCUAA | 0.519 ± 0.068
33 | CAAAAGCUCUGGAUCUACUGGGUUACCUAA | 0.105 ± 0.025
34 | CUUAAGGACUGCGAUCUACUGGGUUACCUAA | 0.0195 ± 0.026
35 | CUAUACCUCAGGAUCUACUGGGUUACCUAA | 0.465 ± 0.051
36 | CUUAAGGAGACCGUCUACUGGGUUACCUAA | 0.00109 ± 0.0075
37 | CUUAAGGAGACCUAGAACUGGGUUAUCCUAA | 0.000203 ± 0.031
38 | CUUAAGGAGACCUUCUACUGGGUUACCGUAA | 0.000925 ± 0.016
39 | CUUAAGGAGUGGAUGUACUGGGUAACCUAA | 0.00324 ± 0.012
40 | CUUAAGGAGAGGAUCUACUGGGUUAACCUAA | 0.00722 ± 0.0036
41 | CUUAAGGAGACCUACAACUGGCUUACCUAA | 0.00022 ± 0.025
42 | CUUAAGGAGACCUACUACUGGGUUACCCAA | 0.00223 ± 0.0032
43 | CUUAAGGACUGGAUCUACUGGGUUCCCUAA | 0.0186 ± 0.02
44 | CUUAAGGAGAGGUUCUUCUGGGUUACCUAA | 0.00145 ± 0.0049
45 | CUUAAGGAGUGGAUCAACUGGGUUAGCUAA | 0.00179 ± 0.0083
46 | CUUAAGGAGUGGAUCUAGUGGGUAACCUAA | 0.000329 ± 0.017
47 | CUUAAGGAGACGAUCUACUGCGAUACCUAA | 0.00217 ± 0.0039
48 | CUUAAGGAGACGAUCUACUCCCUUACCUAA | 0.000386 ± 0.013

Row | Sequence | pre-steady-state target cleavage rate
49 | CUAUUCCACUGGAUCUACUGCGUUACCUAA | 0.542 ± 0.056
50 | CUUAAGGAGACCUAGAUCGUGGGUUACCUAA | 0.000726 ± 0.0082
51 | CUUAACCUCUGGAUCUCACUGGGUUACCUAA | 0.00136 ± 0.0066
52 | CUUAAGGAGACGUUCUACUGGGUUACCAAA | 0.000244 ± 0.02
53 | CUUAAGGAGACCUUCUUCUGGCUUACCUAA | 0.000849 ± 0.0082
54 | CUUAAGGAGACGAUUCUACUGGGUUACCUAA | 0.00227 ± 0.0047
55 | CUAUUCCUCUCGAUCUACUGCGUUACCUAA | 0.948 ± 0.092
56 | CAAUUCCUCUGGAUCUACAUGGGUUACCUAA | 0.00364 ± 0.0048
57 | CUUUUCCUCUGGAUCUACUAGGGUUACCUAA | 0.00312 ± 0.0049
58 | CUUAAGGAGACCAUCUACUGGGUAUCCUAA | 0.000683 ± 0.0096
59 | CUAUUCCUCUGGAUCAUGUGGGUUACCUAA | 0.00031 ± 0.024
60 | CUUAAGGAGAGCAUGUACUGGGUUACCUAA | 0.000236 ± 0.018
61 | CUUAAGGACUCGAUCUACUGGGUUACCAAA | 0.00457 ± 0.0065
62 | CUUAAGGAGACCAUCUACUGCGUUACCAAA | 0.00125 ± 0.0045
63 | CUUAAGGAGAGCAUCUUCUGGGUUACCUAA | 0.00182 ± 0.0039
64 | CUUAAGGUCAGGAUCUAGUGGGUUACCUAA | 0.00439 ± 0.0054
65 | CUUAAGGAGACGUCUACUGGGUUACCUAA | 0.000613 ± 0.012
66 | CAAUUCCUCUGGAUCUACGUGGGUUACCUAA | 0.00281 ± 0.0049
67 | CAAUUCCUCUGGAUCUACUGGGUUACCAAA | 0.509 ± 0.068
68 | CUUAAGGAGACCUAGAUCUGGGUUACCAA | 0.000483 ± 0.01
69 | CUUAAGGAGACCUAGAAGUGGCUUACCUAA | 0.000252 ± 0.014
70 | CUUAAGGAGACCUAGAUCUGGGUAAGCUAA | 0.000182 ± 0.042
71 | CUUAAGGAGUGGAUACUACUGGGUUACCUAA | 0.00496 ± 0.0052
